This note sets out measurements from publication PMC6336344.

Protein sequences, listed by entry. Tags and fused reporters are not part of them.
UniProt Q9LR78: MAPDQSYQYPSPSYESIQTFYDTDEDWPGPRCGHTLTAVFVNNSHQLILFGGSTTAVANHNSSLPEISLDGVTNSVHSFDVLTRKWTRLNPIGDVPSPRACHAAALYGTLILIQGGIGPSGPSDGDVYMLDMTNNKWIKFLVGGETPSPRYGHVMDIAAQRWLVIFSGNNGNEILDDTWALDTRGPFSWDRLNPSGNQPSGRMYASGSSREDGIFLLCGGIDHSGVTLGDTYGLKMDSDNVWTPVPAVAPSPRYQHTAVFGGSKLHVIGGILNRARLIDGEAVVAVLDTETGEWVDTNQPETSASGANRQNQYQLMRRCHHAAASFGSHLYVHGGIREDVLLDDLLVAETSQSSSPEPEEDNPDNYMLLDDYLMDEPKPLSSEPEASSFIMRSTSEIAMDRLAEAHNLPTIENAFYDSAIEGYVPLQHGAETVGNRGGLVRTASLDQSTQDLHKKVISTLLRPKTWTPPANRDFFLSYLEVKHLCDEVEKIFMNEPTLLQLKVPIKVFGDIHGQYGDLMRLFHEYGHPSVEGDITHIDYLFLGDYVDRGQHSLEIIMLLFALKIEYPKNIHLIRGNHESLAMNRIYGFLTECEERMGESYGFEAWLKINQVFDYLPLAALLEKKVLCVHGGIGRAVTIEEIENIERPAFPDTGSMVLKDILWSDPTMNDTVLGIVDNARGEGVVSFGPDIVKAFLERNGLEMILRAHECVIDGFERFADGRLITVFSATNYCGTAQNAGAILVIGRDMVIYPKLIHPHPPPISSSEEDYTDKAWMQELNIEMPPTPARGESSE

For test [1], the target named is BSK3-HA (BRASSINOSTEROID-… KINASE 3, HA-tagged, expressed from BSK3pro:BSK3-HA in Arabidopsis) (Arabidopsis thaliana) (UniProt Q8W4L3). Put plainly: co-IP; transgenic Arabidopsis co-expressing BSK3-HA and a GFP/EYFP fusion; 300-870 μg microsomal proteins from 7 or 8-day-old light-grown seedlings; IP with anti-HA antibody and protein G agarose, blot with anti-GFP; also done after 1 μM BL for 30 minutes (BSK3-HA/BRI1-GFP reduced, the others not affected).

Test [2] has as its target GST-BSK3 (Arabidopsis thaliana) (UniProt Q8W4L3). As to the kind of experiment: pull-down; GST fusion proteins (wheat germ TNT, purified) on glutathione sepharose 4B beads, incubated 2 hours with HA- or FLAG-tagged TNT proteins; PBS pH 7.4, 1 mM dithiothreitol, 0.1 to 1% igepal CA-630, 4 °C; 4 washes; blots with anti-GST, anti-HA, anti-FLAG; only the target purified.
For test [3], the target named is GST-BRI1-KD (BRI1 kinase domain) (Arabidopsis thaliana) (UniProt O22476). The description is as above.
In test [4] the target is T1, GST-BIN2 (Arabidopsis thaliana) (UniProt Q39011).
T1 sequence: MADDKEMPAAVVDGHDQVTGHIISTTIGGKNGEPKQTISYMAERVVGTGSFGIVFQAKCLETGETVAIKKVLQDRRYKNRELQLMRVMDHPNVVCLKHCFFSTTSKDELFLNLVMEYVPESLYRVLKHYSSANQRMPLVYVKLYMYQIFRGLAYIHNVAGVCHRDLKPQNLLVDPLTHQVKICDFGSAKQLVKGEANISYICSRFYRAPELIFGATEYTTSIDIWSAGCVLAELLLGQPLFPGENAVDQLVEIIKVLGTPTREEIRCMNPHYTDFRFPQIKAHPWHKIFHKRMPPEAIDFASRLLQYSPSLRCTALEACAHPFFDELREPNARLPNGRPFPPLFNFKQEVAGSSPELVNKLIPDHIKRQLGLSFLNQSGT
The test is described as above.

The target of test [5] is GST-BSU1 (BRI1 SUPPRESSOR 1 phosphatase) (Arabidopsis thaliana) (UniProt Q9LR78). Described as above.
For test [6], the target named is BSK3-YFP^N (Arabidopsis thaliana) (UniProt Q8W4L3). Put plainly: split reporter; BiFC with halves of YFP (pSPYNE-35S, pSPYCE-35S), transient co-expression in Nicotiana benthamiana leaves, confocal microscopy of leaf epidermal cells.

These are yes or no findings as the source states them, for the method shown. Binding seen in cells or lysates may run through a third protein. Some binding calls cover weakened binding; strength is not graded here. For part of these data: Tags and fused reporters may be left off the sequences shown.

With “BRI1-GFP (BRASSINOSTEROID … 1 receptor kinase, GFP fusion) (from UniProt O22476 24-1196)”, the binding entry in test [1] is recorded as “binds”.

As to “BSK3-HA (in vitro translated) (from UniProt Q8W4L3 1-489)”, the binding entry in test [2], in test [3], in test [4] and in test [5] was “binds” throughout.

Take “BRI1-YFP^C (from UniProt O22476 24-1196) (receptor)”: the binding result in test [6] was “binds”.

As for “BSK1-EYFP (BRASSINOSTEROID-… KINASE 1, EYFP fusion) (from UniProt Q944A7 1-512)”, the binding result in test [1] is recorded as “binds”.

As to “BSU1-YFP^C (from UniProt Q9LR78 1-793) (enzyme)”, the binding result in test [6] was “binds”.

BSK1-YFP^C (from UniProt Q944A7 1-512): the binding entry in test [6] was “binds”.

Turning to “BSK3-GFP (expressed from BSK3pro:BSK3-GFP in Arabidopsis) (from UniProt Q8W4L3 1-489)”, the binding entry in test [1] is reported as “binds”.

Turning to BSK3-YFP^C (from UniProt Q8W4L3 1-489), the binding result in test [6] was “binds”.

Take BSK1-FLAG (from UniProt Q944A7 1-512): in test [2], the binding entry is “binds”.
